For assay [1], the target named is elongin C (endogenous, murine M1 cells) (murine) (UniProt P83940). Kind of assay: competition pull-down; competitor of immobilized biotinylated SOCS-1 SOCS box peptide.
Assay [2] has the same target. Kind of assay: competition pull-down from M1 extracts, 80 mM (so in the source) competing peptide, SDS-PAGE and silver stain.
Assay [3] addresses elongin C containing a myc epitope (mouse) (UniProt P83940). Kind of assay: co-immunoprecipitation with anti-myc from transfected 293T cells, Western blot with anti-FLAG. (In general: In western blotting, separated proteins are transferred to a membrane and probed.)

By UniProt entry, the sequences of proteins in these tests, tags left out. Where a name states a change or a piece, a line headed by the entry shows the natural chain unless it says otherwise. Chains listed by the source or under a name are the forms on record and can include a tag or linker.
UniProt P83940: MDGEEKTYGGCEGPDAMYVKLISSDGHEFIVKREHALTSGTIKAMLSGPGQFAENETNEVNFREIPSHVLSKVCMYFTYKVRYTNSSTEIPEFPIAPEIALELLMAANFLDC
elongin C containing a myc epitope (P83940, form named): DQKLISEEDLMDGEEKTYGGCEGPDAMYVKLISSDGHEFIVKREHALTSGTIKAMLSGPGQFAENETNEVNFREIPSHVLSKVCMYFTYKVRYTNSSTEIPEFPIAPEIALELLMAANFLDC

No constants are given. Whether binding was seen depends on the method and setting. Binding seen in cells or lysates may run through a third protein. Some entries that bind do so weakly or less than the wild type. For some of these results: Tags and fused reporters may be left off the sequences shown.

On to TAPRVLSSLKHLCRKALRSFLTTYQVLALPIPKKMKEFLTYRTF (peptide, UniProt O54929 361-404, looked up) [WSB-2 SOCS box peptide], for which the binding entry in assay [1] and in assay [2] was “binds” each time.

B1: N-terminally FLAG-tagged SSB-1 (protein, mouse)
chain: DYKDDDDKMGQKVTGGIKTVDMRDPTYRPLKQELQGLDYCKPTRLDLLLDMPPVSYDVQLLHSWNNNDRSLNVFVKEDDKLIFHRHPVAQSTDAIRGKVGYTRGLHVWQITWAMRQRGTHAVVGVATADAPLHSVGYTTLVGNNHESWGWDLGRNRLYHDGKNQPSKTYPAFLEPDETFIVPDSFLVALDMDDGTLSFIVDGQYMGVAFRGLKGKKLYPVVSAVWGHCEIRMRYLNGLDPEPLPLMDLCRRSVRLALGKERLGAIPALPLPASLKAYLLYQ
On to B1, for which the binding result in assay [3] was “binds”.

B2: N-terminally FLAG-tagged WSB-2 (protein)
chain: DYKDDDDKMEAGEEPLLLAELKPGRPHQFDWKSSCETWSVAFSPDGSWFAWSQGHCVVKLVPWPLEEQFIPKGFEAKSRSSKNDPKGRGSLKEKTLDCGQIVWGLAFSPWPSPPSRKLWARHHPQAPDVSCLILATGLNDGQIKIWEVQTGLLLLNLSGHQDVVRDLSFTPSGSLILVSASRDKTLRIWDLNKHGKQIQVLSGHLQWVYCCSISPDCSMLCSAAGEKSVFLWSMRSYTLIRKLEGHQSSVVSCDFSPDSALLVTASYDTSVIMWDPYTGERLRSLHHTQLEPTMDDSDVHMSSLRSVCFSPEGLYLATVADDRLLRIWALELKAPVAFAPMTNGLCCTFFPHGGIIATGTRDGHVQFWTAPRVLSSLKHLCRKALRSFLTTYQVLALPIPKKMKEFLTYRTF
B2: the binding result in assay [3] was “binds”.

These data come from US7078174.
